From the supplement of paper PMC10849652
The list shows a part of the results.

Amino acid sequences for entries named in this document (tags omitted). A change or cut given only in a name is not applied to a line headed by its entry.
UniProt P48681: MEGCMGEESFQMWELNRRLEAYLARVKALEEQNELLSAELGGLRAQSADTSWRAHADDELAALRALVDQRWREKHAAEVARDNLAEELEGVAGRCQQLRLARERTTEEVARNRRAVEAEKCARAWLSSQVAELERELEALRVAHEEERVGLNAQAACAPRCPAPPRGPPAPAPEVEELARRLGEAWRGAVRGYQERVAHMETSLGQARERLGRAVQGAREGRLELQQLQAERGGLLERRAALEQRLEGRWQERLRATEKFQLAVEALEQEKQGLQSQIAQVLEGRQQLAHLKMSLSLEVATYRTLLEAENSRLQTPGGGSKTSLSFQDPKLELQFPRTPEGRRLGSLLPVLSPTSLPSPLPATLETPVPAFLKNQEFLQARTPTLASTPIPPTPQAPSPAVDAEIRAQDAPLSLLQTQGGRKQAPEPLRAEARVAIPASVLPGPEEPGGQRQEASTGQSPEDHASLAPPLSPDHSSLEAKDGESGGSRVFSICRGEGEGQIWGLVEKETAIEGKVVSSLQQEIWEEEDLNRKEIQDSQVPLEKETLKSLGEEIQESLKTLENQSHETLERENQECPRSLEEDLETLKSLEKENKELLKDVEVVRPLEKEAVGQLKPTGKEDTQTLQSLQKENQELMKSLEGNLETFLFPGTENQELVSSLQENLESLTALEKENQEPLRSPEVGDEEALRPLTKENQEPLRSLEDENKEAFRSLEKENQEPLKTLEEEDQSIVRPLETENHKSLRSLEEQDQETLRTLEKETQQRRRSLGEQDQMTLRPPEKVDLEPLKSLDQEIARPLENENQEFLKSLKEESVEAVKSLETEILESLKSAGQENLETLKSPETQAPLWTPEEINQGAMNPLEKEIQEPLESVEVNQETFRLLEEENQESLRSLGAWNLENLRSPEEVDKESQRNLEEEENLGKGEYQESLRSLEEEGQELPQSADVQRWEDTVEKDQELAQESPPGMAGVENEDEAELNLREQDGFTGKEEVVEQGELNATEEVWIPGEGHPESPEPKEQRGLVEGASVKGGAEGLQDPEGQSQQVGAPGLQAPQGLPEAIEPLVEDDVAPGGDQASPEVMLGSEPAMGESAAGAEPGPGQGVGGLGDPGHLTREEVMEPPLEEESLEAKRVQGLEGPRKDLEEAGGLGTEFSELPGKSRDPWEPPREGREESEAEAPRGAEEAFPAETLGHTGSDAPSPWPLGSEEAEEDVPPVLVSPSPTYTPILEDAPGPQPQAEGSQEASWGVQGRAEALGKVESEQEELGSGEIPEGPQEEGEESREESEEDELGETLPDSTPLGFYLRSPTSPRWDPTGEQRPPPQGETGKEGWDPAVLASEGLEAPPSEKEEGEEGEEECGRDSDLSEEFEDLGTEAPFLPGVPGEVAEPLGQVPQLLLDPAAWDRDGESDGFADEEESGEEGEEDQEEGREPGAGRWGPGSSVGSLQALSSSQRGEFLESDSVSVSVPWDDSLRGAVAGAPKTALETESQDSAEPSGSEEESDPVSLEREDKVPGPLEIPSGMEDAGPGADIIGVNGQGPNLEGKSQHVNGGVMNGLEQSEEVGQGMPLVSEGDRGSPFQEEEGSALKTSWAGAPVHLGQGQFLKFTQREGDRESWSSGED
UniProt Q6ZNB6: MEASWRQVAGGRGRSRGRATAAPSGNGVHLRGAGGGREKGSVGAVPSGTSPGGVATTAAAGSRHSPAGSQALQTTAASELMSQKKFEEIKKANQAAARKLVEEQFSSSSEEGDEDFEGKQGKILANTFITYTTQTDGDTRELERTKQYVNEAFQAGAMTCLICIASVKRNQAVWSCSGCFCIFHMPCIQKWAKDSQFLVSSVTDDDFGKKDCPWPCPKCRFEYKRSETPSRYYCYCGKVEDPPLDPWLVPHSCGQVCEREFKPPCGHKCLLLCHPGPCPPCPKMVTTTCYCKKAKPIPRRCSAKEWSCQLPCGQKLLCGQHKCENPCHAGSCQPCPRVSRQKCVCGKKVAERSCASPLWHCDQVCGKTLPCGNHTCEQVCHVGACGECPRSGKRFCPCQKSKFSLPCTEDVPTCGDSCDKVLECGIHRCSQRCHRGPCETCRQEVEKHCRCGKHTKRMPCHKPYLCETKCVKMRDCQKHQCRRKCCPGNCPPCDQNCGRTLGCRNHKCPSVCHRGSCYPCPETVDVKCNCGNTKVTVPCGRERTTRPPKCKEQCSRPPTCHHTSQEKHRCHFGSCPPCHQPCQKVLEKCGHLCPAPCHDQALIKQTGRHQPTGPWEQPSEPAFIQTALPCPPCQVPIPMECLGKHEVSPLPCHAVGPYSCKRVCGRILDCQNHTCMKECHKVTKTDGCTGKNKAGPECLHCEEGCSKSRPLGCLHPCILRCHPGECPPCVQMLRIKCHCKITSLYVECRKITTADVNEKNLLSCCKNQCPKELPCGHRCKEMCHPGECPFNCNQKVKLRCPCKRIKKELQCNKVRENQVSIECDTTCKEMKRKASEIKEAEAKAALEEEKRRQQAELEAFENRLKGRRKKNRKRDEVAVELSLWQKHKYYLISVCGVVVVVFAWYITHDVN
UniProt Q12857, whole entry, looked up: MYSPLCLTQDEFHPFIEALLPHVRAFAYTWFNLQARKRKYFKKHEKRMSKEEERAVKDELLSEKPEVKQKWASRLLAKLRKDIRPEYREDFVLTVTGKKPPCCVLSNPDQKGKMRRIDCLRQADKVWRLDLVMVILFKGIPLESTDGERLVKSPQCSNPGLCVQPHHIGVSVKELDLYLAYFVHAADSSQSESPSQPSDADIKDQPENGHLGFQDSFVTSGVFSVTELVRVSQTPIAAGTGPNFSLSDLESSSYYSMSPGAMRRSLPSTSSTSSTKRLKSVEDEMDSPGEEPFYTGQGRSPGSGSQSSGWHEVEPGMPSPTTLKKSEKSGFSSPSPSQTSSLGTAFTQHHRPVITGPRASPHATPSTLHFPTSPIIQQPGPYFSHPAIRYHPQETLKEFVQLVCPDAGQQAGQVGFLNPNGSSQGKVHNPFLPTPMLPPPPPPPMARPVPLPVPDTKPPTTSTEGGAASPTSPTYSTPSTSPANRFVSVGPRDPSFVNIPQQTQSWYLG
UniProt Q9NYR9: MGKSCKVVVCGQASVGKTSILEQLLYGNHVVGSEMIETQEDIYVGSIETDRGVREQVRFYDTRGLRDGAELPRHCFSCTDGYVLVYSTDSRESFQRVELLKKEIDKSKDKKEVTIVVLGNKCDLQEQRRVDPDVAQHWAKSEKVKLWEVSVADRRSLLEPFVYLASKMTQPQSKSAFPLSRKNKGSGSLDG
UniProt O60524: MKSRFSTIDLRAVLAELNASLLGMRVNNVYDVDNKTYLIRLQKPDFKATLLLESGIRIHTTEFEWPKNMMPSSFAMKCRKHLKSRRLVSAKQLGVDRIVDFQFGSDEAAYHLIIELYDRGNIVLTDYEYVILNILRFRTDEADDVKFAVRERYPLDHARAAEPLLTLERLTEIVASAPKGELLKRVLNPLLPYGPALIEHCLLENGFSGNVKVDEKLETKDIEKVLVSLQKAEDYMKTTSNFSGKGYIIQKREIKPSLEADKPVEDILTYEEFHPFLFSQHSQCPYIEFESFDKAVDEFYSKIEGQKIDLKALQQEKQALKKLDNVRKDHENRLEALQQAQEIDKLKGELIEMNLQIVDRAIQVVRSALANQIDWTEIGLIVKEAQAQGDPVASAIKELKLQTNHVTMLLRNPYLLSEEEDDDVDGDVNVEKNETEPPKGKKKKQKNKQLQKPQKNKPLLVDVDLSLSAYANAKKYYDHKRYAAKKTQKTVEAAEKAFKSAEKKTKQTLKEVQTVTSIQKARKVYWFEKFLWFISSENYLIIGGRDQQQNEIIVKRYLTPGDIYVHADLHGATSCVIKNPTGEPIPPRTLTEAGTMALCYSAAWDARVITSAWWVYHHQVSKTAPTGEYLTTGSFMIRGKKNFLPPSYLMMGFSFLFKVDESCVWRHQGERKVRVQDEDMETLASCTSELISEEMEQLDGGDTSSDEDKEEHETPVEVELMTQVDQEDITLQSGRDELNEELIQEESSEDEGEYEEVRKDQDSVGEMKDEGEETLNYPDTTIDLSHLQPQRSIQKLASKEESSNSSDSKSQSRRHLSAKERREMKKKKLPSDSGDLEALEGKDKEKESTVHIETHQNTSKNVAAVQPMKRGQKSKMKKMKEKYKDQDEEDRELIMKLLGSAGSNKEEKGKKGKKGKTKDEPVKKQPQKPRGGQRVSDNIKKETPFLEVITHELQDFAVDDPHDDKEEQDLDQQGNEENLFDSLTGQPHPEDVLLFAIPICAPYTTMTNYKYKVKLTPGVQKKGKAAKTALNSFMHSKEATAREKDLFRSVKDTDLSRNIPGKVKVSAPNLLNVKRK
UniProt Q96TA1: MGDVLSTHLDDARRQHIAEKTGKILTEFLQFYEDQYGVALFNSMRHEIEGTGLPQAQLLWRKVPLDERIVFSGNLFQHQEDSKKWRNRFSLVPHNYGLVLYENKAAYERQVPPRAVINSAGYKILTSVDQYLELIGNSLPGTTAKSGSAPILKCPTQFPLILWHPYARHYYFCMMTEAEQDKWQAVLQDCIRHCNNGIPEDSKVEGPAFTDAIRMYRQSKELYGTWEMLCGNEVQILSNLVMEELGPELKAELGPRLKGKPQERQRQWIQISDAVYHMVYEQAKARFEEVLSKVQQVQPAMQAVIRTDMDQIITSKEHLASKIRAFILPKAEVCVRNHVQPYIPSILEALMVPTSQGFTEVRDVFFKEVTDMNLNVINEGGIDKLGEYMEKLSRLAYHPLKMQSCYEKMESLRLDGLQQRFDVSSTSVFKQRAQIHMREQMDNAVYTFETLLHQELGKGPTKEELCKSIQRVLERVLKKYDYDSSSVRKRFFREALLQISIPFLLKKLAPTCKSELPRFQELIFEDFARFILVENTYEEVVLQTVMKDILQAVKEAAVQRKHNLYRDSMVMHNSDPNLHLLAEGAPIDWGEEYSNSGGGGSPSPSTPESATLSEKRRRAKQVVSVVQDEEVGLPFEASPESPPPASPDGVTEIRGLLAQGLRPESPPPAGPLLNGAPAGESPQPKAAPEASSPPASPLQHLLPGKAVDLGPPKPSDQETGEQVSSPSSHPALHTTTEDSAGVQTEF
UniProt P46934: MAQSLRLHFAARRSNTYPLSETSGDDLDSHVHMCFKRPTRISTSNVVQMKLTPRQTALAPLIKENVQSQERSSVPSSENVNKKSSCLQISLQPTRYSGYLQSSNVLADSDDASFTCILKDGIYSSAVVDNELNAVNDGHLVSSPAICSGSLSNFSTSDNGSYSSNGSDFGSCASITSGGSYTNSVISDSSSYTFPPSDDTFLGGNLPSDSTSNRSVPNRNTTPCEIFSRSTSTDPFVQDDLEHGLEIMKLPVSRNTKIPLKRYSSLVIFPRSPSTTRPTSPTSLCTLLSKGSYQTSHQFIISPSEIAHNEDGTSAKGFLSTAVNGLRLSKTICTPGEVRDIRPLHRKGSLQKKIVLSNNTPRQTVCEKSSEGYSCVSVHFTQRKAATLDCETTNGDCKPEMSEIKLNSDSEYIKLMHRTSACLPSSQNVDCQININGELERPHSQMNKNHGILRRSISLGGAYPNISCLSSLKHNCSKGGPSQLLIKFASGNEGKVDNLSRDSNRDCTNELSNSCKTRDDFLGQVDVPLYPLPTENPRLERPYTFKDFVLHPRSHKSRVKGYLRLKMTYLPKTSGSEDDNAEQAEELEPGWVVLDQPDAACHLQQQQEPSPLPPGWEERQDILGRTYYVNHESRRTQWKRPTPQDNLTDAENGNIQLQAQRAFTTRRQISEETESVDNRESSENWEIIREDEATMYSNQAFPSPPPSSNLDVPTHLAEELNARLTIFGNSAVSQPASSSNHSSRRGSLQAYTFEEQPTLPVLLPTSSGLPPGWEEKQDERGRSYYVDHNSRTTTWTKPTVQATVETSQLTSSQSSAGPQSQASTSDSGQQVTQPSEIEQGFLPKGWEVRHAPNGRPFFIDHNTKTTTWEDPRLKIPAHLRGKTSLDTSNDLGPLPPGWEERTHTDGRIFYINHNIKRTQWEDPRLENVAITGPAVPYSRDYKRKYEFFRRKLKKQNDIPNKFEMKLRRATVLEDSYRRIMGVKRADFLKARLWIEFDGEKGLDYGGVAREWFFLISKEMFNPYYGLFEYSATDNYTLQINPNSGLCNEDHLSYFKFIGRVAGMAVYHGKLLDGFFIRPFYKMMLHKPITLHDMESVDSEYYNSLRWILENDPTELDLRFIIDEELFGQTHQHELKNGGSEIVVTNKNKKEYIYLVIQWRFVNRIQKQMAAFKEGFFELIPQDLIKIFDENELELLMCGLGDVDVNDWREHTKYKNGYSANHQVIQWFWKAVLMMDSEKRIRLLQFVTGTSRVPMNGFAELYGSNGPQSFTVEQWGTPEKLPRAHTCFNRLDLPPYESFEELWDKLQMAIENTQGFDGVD
UniProt Q9BU61: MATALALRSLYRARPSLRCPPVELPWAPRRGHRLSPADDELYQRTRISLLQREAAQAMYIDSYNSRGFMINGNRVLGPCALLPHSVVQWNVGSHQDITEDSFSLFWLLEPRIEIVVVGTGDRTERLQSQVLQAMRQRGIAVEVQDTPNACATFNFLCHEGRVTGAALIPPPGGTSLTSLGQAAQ

Key:
Assay in all cases: log2 fold change, soluble protein after heating vs DMSO (PISA); higher = thermal stabilisation; K562 lysate, 10 uM; active = over 0.2 and 3.5 SD of the protein, either way, in both replicates (recomputed)
[1] = compound: NCC(=O)Nc1ccc(-n2nc(C(F)(F)F)cc2-c2ccc3c(ccc4ccccc43)c2)cc1
Procedure, shortened: (§1)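 K562 pellets were dounce-homogenised in PBS pH 7.4 with 1 mM MgCl2, and the crude extract at 1 mg/mL protein was treated with 10 μM compound for 30 min. Aliquots were heated for 3 min across 48°C-58°C, pooled, and brought to 0.5% NP-40 at 4°C; soluble protein was the supernatant after 21,000xg for 90 min. Soluble protein was quantified by TMTpro 16plex LC-MS/MS with channel sums equalised, and reported as log2 fold change in thermal stability against DMSO controls, with values from duplicates.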

vorinostat = compound: O=C(CCCCCCC(=O)Nc1ccccc1)NO [vorinostat]
Procedure, shortened: as §1

silmitasertib = compound: O=C(O)c1ccc2c(c1)nc(Nc1cccc(Cl)c1)c1ccncc12 [silmitasertib]
Procedure, shortened: as §1

[2] = compound: O=C1NC(=O)C(c2cnc3ccccn23)=C1c1cn2c3c(cc(F)cc13)CN(C(=O)N1CCCCC1)CC2
Procedure, shortened: as §1

entospletinib = compound: c1cn2cc(-c3ccc4cn[nH]c4c3)nc(Nc3ccc(N4CCOCC4)cc3)c2n1 [entospletinib]
Procedure, shortened: as §1

Measured: log2 fold change

NDUFS5 (UniProt O43920)
inactive: [1] 0.063 | vorinostat 0.071 | silmitasertib -0.01 | [2] 0.027 | entospletinib -0.027

NECAP1 (UniProt Q8NC96)
inactive: [1] -0.028 | vorinostat -0.025 | silmitasertib 0.006 | [2] 0.045 | entospletinib 0.002

NDOR1 isoform 2 (UniProt Q9UHB4)
inactive: [1] 0.005 | vorinostat -0.026 | silmitasertib -0.017 | [2] 0.024 | entospletinib -0.071

NDFIP1 (UniProt Q9BT67)
inactive: [1] -0.002 | vorinostat -0.061 | silmitasertib -0.011 | [2] 0.08

NEU3 isoform 2 (UniProt Q9UQ49)
inactive: [1] -0.009 | vorinostat -0.137 | silmitasertib 0.089 | [2] -0.077 | entospletinib 0.005

NHLRC2 (UniProt Q8NBF2)
inactive: [1] -0.001 | vorinostat -0.022 | silmitasertib 0.051 | [2] -0.003 | entospletinib -0.004

NES (UniProt P48681)
inactive: [1] 0.052 | vorinostat -0.045 | silmitasertib -0.005 | [2] -0.02 | entospletinib -0.023

NFXL1 (UniProt Q6ZNB6)
inactive: [1] -0.016 | vorinostat -0.102 | silmitasertib 0.01 | [2] 0.031 | entospletinib -0.027

NDST2 (UniProt P52849)
inactive: [1] 0.056 | vorinostat 0.131 | silmitasertib 0.097 | [2] -0.056 | entospletinib 0.13

NLK (UniProt Q9UBE8)
inactive: [1] 0.277 | vorinostat -0.161 | silmitasertib -0.061

NFIA isoform 4 (UniProt Q12857)
inactive: [1] -0.044 | vorinostat -0.088 | silmitasertib -0.015 | [2] 0.026

NFATC2 (UniProt Q13469)
active: vorinostat -0.411
inactive: [1] 0.02 | silmitasertib 0.021 | [2] 0.044 | entospletinib -0.062

NEB isoform 3 (UniProt P20929)
inactive: [1] 0.157 | vorinostat -0.057 | silmitasertib -0.059 | [2] 0.044

5 entries picked at random from those above:
NFIA isoform 4 (UniProt Q12857)
inactive: [1] -0.044 | vorinostat -0.088 | silmitasertib -0.015 | [2] 0.026

NFXL1 (UniProt Q6ZNB6)
inactive: [1] -0.016 | vorinostat -0.102 | silmitasertib 0.01 | [2] 0.031 | entospletinib -0.027

NEB isoform 3 (UniProt P20929)
inactive: [1] 0.157 | vorinostat -0.057 | silmitasertib -0.059 | [2] 0.044

NDST2 (UniProt P52849)
inactive: [1] 0.056 | vorinostat 0.131 | silmitasertib 0.097 | [2] -0.056 | entospletinib 0.13

NFATC2 (UniProt Q13469)
active: vorinostat -0.411
inactive: [1] 0.02 | silmitasertib 0.021 | [2] 0.044 | entospletinib -0.062

(listing goes on)

NLN (UniProt Q9BYT8)
inactive: [1] 0.042 | vorinostat 0.146 | silmitasertib -0.01 | [2] -0.008 | entospletinib -0.006

NDUFB4 (UniProt O95168)
inactive: [1] -0.079 | vorinostat 0.206 | silmitasertib 0.018 | [2] 0 | entospletinib 0.004

NIPA1 (UniProt Q7RTP0)
inactive: [1] 0.048 | vorinostat -0.093 | silmitasertib 0.028 | [2] 0.057

NDUFA7 (UniProt O95182)
inactive: [1] -0.049 | vorinostat 0.051 | silmitasertib 0.013 | [2] 0.015 | entospletinib 0.019

NHLRC3 (UniProt Q5JS37)
inactive: [1] -0.085 | vorinostat -0.015 | silmitasertib 0.001 | [2] -0.008 | entospletinib 0.024

NEDD1 isoform 3 (UniProt Q8NHV4)
inactive: [1] 0.003 | vorinostat -0.074 | silmitasertib -0.032 | [2] -0.026 | entospletinib 0.026

NEK8 (UniProt Q86SG6)
inactive: [1] 0.093 | vorinostat -0.307 | silmitasertib 0.008

NIP7 (UniProt Q9Y221)
inactive: [1] -0.037 | vorinostat -0.023 | silmitasertib 0.035 | [2] -0.045 | entospletinib -0.014

NFU1 (UniProt Q9UMS0)
inactive: [1] 0.02 | vorinostat 0.052 | silmitasertib 0.002 | [2] -0.003 | entospletinib -0.064

NDUFB7 (UniProt P17568)
inactive: [1] -0.008 | vorinostat 0.181 | silmitasertib -0.042 | [2] 0.042 | entospletinib -0.028

NDUFB5 (UniProt O43674)
inactive: [1] -0.01 | vorinostat 0.151 | silmitasertib 0.059 | [2] -0.02 | entospletinib -0.017

NDUFAF4 (UniProt Q9P032)
inactive: [1] 0.03 | vorinostat 0.045 | silmitasertib 0.016 | [2] 0.015 | entospletinib -0.013

NDUFB1 (UniProt O75438)
inactive: [1] 0.022 | vorinostat 0.029 | silmitasertib 0.074 | [2] 0.187

NELFCD (UniProt Q8IXH7)
active: vorinostat -0.322
inactive: [1] 0.023 | silmitasertib 0.049 | [2] -0.005 | entospletinib 0.032

NFYB (UniProt P25208)
inactive: [1] 0.156 | vorinostat 0.065 | silmitasertib 0.012 | [2] 0.019 | entospletinib -0.001

NFAT5 isoform 5 (UniProt O94916)
inactive: [1] 0.033 | vorinostat -0.026 | silmitasertib 0.037 | [2] 0.016 | entospletinib -0.061

NECTIN2 isoform 2 (UniProt Q92692)
inactive: [1] 0.028 | vorinostat 0.327 | silmitasertib -0.037 | [2] -0.135 | entospletinib -0.104

NDUFB10 (UniProt O96000)
inactive: [1] 0.016 | vorinostat 0.127 | silmitasertib 0.003 | [2] 0.036 | entospletinib 0.014

NELFA (UniProt Q9H3P2)
inactive: [1] -0.057 | silmitasertib -0.004 | [2] 0.008 | entospletinib -0.027
active: vorinostat -0.309

NELFE (UniProt P18615)
inactive: [1] 0.039 | vorinostat 0.018 | silmitasertib -0.007 | [2] -0.021 | entospletinib -0.016

NKIRAS2 (UniProt Q9NYR9)
inactive: [1] 0.102 | vorinostat -0.048 | silmitasertib -0.096 | [2] 0.005 | entospletinib 0.041

NEMF (UniProt O60524)
inactive: [1] -0.036 | vorinostat 0.052 | silmitasertib 0.012 | [2] -0.01 | entospletinib 0.031

NIT1 (UniProt Q86X76)
inactive: [1] -0.005 | vorinostat 0.07 | silmitasertib -0.01 | [2] 0.036 | entospletinib 0.025

NFATC2IP (UniProt Q8NCF5)
inactive: [1] 0.041 | vorinostat -0.069 | silmitasertib -0.039 | [2] -0.07 | entospletinib 0.041

NHEJ1 (UniProt Q9H9Q4)
inactive: [1] 0.029 | vorinostat 0.052 | silmitasertib -0.06 | [2] -0.005 | entospletinib 0.009

NFATC1 (UniProt O95644)
inactive: [1] 0.014 | silmitasertib 0.07 | [2] 0.033 | entospletinib -0.047
active: vorinostat -0.364

NIBAN2 (UniProt Q96TA1)
inactive: [1] 0.005 | vorinostat -0.087 | silmitasertib 0.027 | [2] -0.009 | entospletinib -0.003

NFKBIB (UniProt Q15653)
inactive: [1] -0.052 | vorinostat -0.204 | silmitasertib 0.04 | [2] 0.024 | entospletinib 0

NFX1 (UniProt Q12986)
inactive: [1] 0.039 | vorinostat -0.023 | silmitasertib -0.024 | [2] -0.018 | entospletinib -0.083

NDEL1 isoform 2 (UniProt Q9GZM8)
inactive: [1] 0.002 | vorinostat 0.012 | silmitasertib -0.09 | [2] -0.014 | entospletinib 0.021

NDUFC2 (UniProt O95298)
inactive: [1] -0.073 | vorinostat 0.13 | silmitasertib -0.023 | [2] -0.029 | entospletinib -0.005

NLRP2 (UniProt Q9NX02)
inactive: [1] -0.031 | silmitasertib 0.062 | [2] -0.015 | entospletinib 0.011
active: vorinostat -0.528

NEDD4 isoform 4 (UniProt P46934)
inactive: [1] 0.042 | vorinostat -0.086 | silmitasertib 0.021 | [2] -0.004 | entospletinib 0.019

NDUFAF3 (UniProt Q9BU61)
inactive: [1] -0.105 | vorinostat 0.063 | silmitasertib 0.011 | [2] 0.005 | entospletinib -0.043

NIF3L1 (UniProt Q9GZT8)
inactive: [1] 0.033 | vorinostat 0.116 | silmitasertib -0.045 | [2] 0.003 | entospletinib 0.006

NDUFV2 (UniProt P19404)
inactive: [1] -0.001 | vorinostat 0.095 | silmitasertib 0.022 | [2] -0.013 | entospletinib -0.027

NDUFS1 isoform 2 (UniProt P28331)
inactive: [1] -0.006 | vorinostat 0.118 | silmitasertib 0.032 | [2] -0.052 | entospletinib -0.014

NDRG2 (UniProt Q9UN36)
inactive: [1] 0.01 | vorinostat 0.021 | silmitasertib -0.026 | [2] 0.026 | entospletinib -0.001

NDUFB6 (UniProt O95139)
inactive: [1] -0.026 | vorinostat 0.085 | silmitasertib -0.027 | [2] 0.014 | entospletinib -0.073

NDUFA11 (UniProt Q86Y39)
inactive: [1] -0.036 | vorinostat 0.109 | silmitasertib -0.021 | [2] -0.019 | entospletinib 0.021

NFYA (UniProt P23511)
inactive: [1] -0.007 | vorinostat 0.099 | silmitasertib -0.033 | [2] -0.053 | entospletinib -0.012
